PubChem BioAssay AID1224826 – NIAID | 2016
Aim: 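Knock-downs that raise or lower Tnf reporter signal after endotoxin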 (primary screen). System: RAW264.7 G9 macrophages from mouse bearing reporters for p65 (GFP) and the Tnf promoter (mCherry). Knock-down reagent: siRNA pool against mouse genes, 100 nM. Timing: 16 h of LPS stimulation, after 2 days of siRNA transfection. Conditions: bacterial lipopolysaccharide (Salmonella minnesota R595), 10 ng/ml. Read-out: 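Imaged Tnf reporter mCherry in nuclei, minus background, normalised per plate to the median and expressed as robust z-scores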. Scale: Tnf reporter robust z-score: higher = stronger Tnf promoter reporter signal after LPS. Rule for the call: 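Called active when robust z-score is at most -1.3, matching the median of the Tlr4 knock-down control, or over 3; control wells and wells with under 50 cells never active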. Meaning of the calls: active = Tnf reporter clearly lowered or raised; inactive = no clear change in Tnf reporter.
The deposit covers about 17,000 reagents; shown is a random part of them. About 1,110 of them (6.6%) count as active. 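Active means lowered or raised reporter signal; replicate intensities are raw and not normalised per plate.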 Not all columns of the deposit are shown.

What is on record for Drc5?
Tnf reporter robust z-score: -1.06; fewer than 50 cells in well: enough cells in well; Outcome: inactive

How did the screen score Ces1c?
Tnf reporter robust z-score: -0.21; fewer than 50 cells in well: enough cells in well; Outcome: inactive

Which result is listed for A630052C17Rik?
Tnf reporter robust z-score: 1.32; fewer than 50 cells in well: enough cells in well; Outcome: inactive

What is on record for Clec3b?
Tnf reporter robust z-score: 0.07; fewer than 50 cells in well: enough cells in well; Outcome: inactive

With Hand2, what does the deposit list?
Tnf reporter robust z-score: -1.09; fewer than 50 cells in well: enough cells in well; Outcome: inactive

With Rcc1l, how do the results read?
Tnf reporter robust z-score: -0.71; fewer than 50 cells in well: enough cells in well; Outcome: inactive

Which result is listed for Tlk1?
fewer than 50 cells in well: fewer than 50 cells per well; well left out of calls; Outcome: inactive

With Rcn2, how do the results read?
Tnf reporter robust z-score: 3.61; fewer than 50 cells in well: enough cells in well; Outcome: active

With Epb42, how do the results read?
Tnf reporter robust z-score: 1.06; fewer than 50 cells in well: enough cells in well; Outcome: inactive

What did the screen give for Esrp2?
Tnf reporter robust z-score: -0.4; fewer than 50 cells in well: enough cells in well; Outcome: inactive

How did the screen score Sf3a1?
Tnf reporter robust z-score: -1.53; fewer than 50 cells in well: enough cells in well; Outcome: active

What did the screen give for Syt9?
fewer than 50 cells in well: fewer than 50 cells per well; well left out of calls; Outcome: inactive

With Mrpl37, what does the deposit list?
Tnf reporter robust z-score: 0.31; fewer than 50 cells in well: enough cells in well; Outcome: inactive

With Dennd2c, what was measured?
Tnf reporter robust z-score: 0.11; fewer than 50 cells in well: enough cells in well; Outcome: inactive

What is on record for Ddx47?
Tnf reporter robust z-score: 1.66; fewer than 50 cells in well: enough cells in well; Outcome: inactive

What is on record for Rell1?
Tnf reporter robust z-score: 0.26; fewer than 50 cells in well: enough cells in well; Outcome: inactive

With Apex2, how do the results read?
Tnf reporter robust z-score: 1.65; fewer than 50 cells in well: enough cells in well; Outcome: inactive

How did the screen score Vezf1?
Tnf reporter robust z-score: 0.21; fewer than 50 cells in well: enough cells in well; Outcome: inactive

With Eed, what was measured?
Tnf reporter robust z-score: 0.31; fewer than 50 cells in well: enough cells in well; Outcome: inactive

How did the screen score Zfp395?
Tnf reporter robust z-score: 0.14; fewer than 50 cells in well: enough cells in well; Outcome: inactive

For Or52z14, what was measured?
Tnf reporter robust z-score: 0.01; fewer than 50 cells in well: enough cells in well; Outcome: inactive

How did the screen score Papss1?
Tnf reporter robust z-score: 1.94; fewer than 50 cells in well: enough cells in well; Outcome: inactive

How did the screen score Upb1?
fewer than 50 cells in well: fewer than 50 cells per well; well left out of calls; Outcome: inactive

For St6galnac2, what does the deposit list?
Tnf reporter robust z-score: 1.56; fewer than 50 cells in well: enough cells in well; Outcome: inactive

Which result is listed for Mdfi?
fewer than 50 cells in well: fewer than 50 cells per well; well left out of calls; Outcome: inactive

For Ephx2, what was measured?
Tnf reporter robust z-score: -0.27; fewer than 50 cells in well: enough cells in well; Outcome: inactive

With Nprl3, how do the results read?
Tnf reporter robust z-score: -0.35; fewer than 50 cells in well: enough cells in well; Outcome: inactive

A stretch from the list above, as a working copy:
Papss1 → Tnf reporter robust z-score: 1.94; fewer than 50 cells in well: enough cells in well; Outcome: inactive
Upb1 → fewer than 50 cells in well: fewer than 50 cells per well; well left out of calls; Outcome: inactive
St6galnac2 → Tnf reporter robust z-score: 1.56; fewer than 50 cells in well: enough cells in well; Outcome: inactive
Mdfi → fewer than 50 cells in well: fewer than 50 cells per well; well left out of calls; Outcome: inactive
